# Reference: PubChem BioAssay AID588522 (NMMLSC, 2011)
# In all, about 1,700 compounds went through this assay and about 20 (1%) were called active.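 The calls were made as follows: active = inhibition above the screen-wide mean plus twice its standard deviation (cut at about 32% in these data); inactive = the rest.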 This is a selection; strong and weak results do not stand in their true shares.
# System: Candida albicans drug resistance protein 1 (Cdr1) expressed in S. cerevisiae
# Assay: Cdr1 pump blockade via Nile Red efflux – S. cerevisiae AD/CaCDR1, flow cytometry, cherry pick 1, singleplex, confirmation (AID 588522)
# Settings: at 10 µM, active compounds read high
row,Structure (SMILES),inhibition
1,O=[N+]([O-])c1cnc2ccc3ccccc3c2c1,inactive: -0.06%
2,CCN(CC)c1ccc([N+](=O)[O-])c2cccnc12,inactive: -0.07%
